The target in assay [1] is CtIP (endogenous) (human (endogenous in HEK293T)) (UniProt Q99708). The experiment in a line: co-IP; HEK293T cell lysates precipitated with control IgG, anti-USP52 or anti-CtIP antibodies; endogenous proteins.
Assay [2] addresses FLAG–CtIP (full-length) (human) (UniProt Q99708). The experiment in a line: co-IP; FLAG–CtIP constructs transfected into HEK293T cells for 24 h; lysates in NETN buffer incubated with anti-FLAG agarose beads overnight at 4 °C; blotted for USP52.

The chains behind the UniProt entries cited, without tags or fusion partners.
UniProt Q99708: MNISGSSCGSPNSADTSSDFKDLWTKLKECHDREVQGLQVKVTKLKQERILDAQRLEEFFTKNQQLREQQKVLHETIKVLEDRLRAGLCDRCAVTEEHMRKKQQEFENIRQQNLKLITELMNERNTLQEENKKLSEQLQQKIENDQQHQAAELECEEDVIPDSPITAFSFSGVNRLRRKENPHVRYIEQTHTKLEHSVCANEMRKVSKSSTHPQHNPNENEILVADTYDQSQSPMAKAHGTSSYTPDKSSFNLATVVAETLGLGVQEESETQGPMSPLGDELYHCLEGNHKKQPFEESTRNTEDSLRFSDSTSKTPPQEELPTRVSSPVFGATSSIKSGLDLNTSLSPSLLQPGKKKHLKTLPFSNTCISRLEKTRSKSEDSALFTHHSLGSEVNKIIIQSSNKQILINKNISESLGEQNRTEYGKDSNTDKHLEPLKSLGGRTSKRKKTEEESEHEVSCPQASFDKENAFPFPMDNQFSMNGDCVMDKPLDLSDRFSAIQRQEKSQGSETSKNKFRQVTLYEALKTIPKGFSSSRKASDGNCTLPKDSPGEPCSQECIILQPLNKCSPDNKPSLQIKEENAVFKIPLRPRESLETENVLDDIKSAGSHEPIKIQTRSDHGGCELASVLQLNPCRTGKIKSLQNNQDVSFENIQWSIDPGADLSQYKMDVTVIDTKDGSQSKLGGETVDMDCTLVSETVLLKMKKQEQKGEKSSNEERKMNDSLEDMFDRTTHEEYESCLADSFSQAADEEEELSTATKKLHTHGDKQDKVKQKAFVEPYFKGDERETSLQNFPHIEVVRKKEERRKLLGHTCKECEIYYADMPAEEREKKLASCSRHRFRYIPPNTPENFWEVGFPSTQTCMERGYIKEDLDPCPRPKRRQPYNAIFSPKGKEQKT

Results are given in words; binding and its absence hold for the method and conditions named. Binding seen in cells or lysates may run through a third protein. Some binding calls cover weakened binding; strength is not graded here.

B1: USP52 (endogenous) (protein, UniProt Q504Q3 1-1202)
chain: MNFEGLDPGLAEYAPAMHSALDPVLDAHLNPSLLQNVELDPEGVALEALPVQESVHIMEGVYSELHSVVAEVGVPVSVSHFDLHEEMLWVGSHGGHATSFFGPALERYSSFQVNGSDDIRQIQSLENGILFLTKNNLKYMARGGLIIFDYLLDENEDMHSLLLTDSSTLLVGGLQNHIIEIDLNTVQETQKYAVETPGVTIMRQTNRFFFCGHTSGKVSLRDLRTFKVEHEFDAFSGSLSDFDVHGNLLAACGFSSRLTGLACDRFLKVYDLRMMRAITPLQVHVDPAFLRFIPTYTSRLAIISQSGQCQFCEPTGLANPADIFHVNPVGPLLMTFDVSASKQALAFGDSEGCVHLWTDSPEPSFNPYSRETEFALPCLVDSLPPLDWSQDLLPLSLIPVPLTTDTLLSDWPAANSAPAPRRAPPVDAEILRTMKKVGFIGYAPNPRTRLRNQIPYRLKESDSEFDSFSQVTESPVGREEEPHLHMVSKKYRKVTIKYSKLGLEDFDFKHYNKTLFAGLEPHIPNAYCNCMIQVLYFLEPVRCLIQNHLCQKEFCLACELGFLFHMLDLSRGDPCQGNNFLRAFRTIPEASALGLILADSDEASGKGNLARLIQRWNRFILTQLHQDMQELEIPQAYRGAGGSSFCSSGDSVIGQLFSCEMENCSLCRCGSETVRASSTLLFTLSYPDGSKSDKTGKNYDFAQVLKRSICLDQNTQAWCDTCEKYQPTIQTRNIRHLPDILVINCEVNSSKEADFWRMQAEVAFKMAVKKHGGEISKNKEFALADWKELGSPEGVLVCPSIEELKNVWLPFSIRMKMTKNKGLDVCNWTDGDEMQWGPARAEEEHGVYVYDLMATVVHILDSRTGGSLVAHIKVGETYHQRKEGVTHQQWYLFNDFLIEPIDKHEAVQFDMNWKVPAILYYVKRNLNSRYNLNIKNPIEASVLLAEASLARKQRKTHTTFIPLMLNEMPQIGDLVGLDAEFVTLNEEEAELRSDGTKSTIKPSQMSVARITCVRGQGPNEGIPFIDDYISTQEQVVDYLTQYSGIKPGDLDAKISSKHLTTLKSTYLKLRFLIDIGVKFVGHGLQKDFRVINLMVPKDQVLDTVYLFHMPRKRMISLRFLAWYFLDLKIQGETHDSIEDARTALQLYRKYLELSKNGTEPESFHKVLKGLYEKGRKMDWKVPEPEGQTSPKNAAVFSSVLAL
For B1, the binding result in assay [1] and in assay [2] was “binds” throughout.

These data come from article PMC7584643.
